PubChem BioAssay AID1259308 – NCATS – 2017
This is one part, drawn at random, of about 59,000 reagents tested. About 1,510 of all reagents (2.6%) were called active. 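Calls use total luciferase alone and ignore viability, so some active siRNAs may act by altering cell number.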 Reagents against one gene are numbered here. Further read-outs or replicates are left out here.

Purpose: 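Candidate targets for better recombinant protein yield in mammalian cells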 (primary screen)
Cell system: human HEK293 embryonic kidney cells stably expressing firefly luciferase (HEK-CMV-Luc2-Hygro)
Reagent: single siRNA against human genes, 0.8 pmol siRNA per well
Timing: 72 h
Detection: 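Reporter luminescence and viable-cell signal on separate replicate plates, given as percent of non-targeting control and median/MAD z-scores, plus per-cell luciferase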
Scale: total luciferase, z-score: higher = more reporter protein produced
Active means: 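An siRNA counts as active if its total luciferase robust z-score exceeds 3; genes with two or more such siRNAs out of three were retested with fresh siRNAs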
Meaning of the calls: active = raised luciferase; inactive = no rise

Which result is listed for WDR93 (WD repeat domain 93) #1?
total luciferase, z-score: 0.989; activity call: inactive

With WDR93 (WD repeat domain 93) #2, how do the results read?
total luciferase, z-score: 1.55; activity call: inactive

For WDR93 (WD repeat domain 93) #3, how do the results read?
total luciferase, z-score: 2.6; activity call: inactive

With VPS45 (vacuolar protein sorting 45 homolog) #1, what was measured?
total luciferase, z-score: -0.183; activity call: inactive

How did the screen score VPS45 (vacuolar protein sorting 45 homolog) #2?
total luciferase, z-score: 0.601; activity call: inactive

For VPS45 (vacuolar protein sorting 45 homolog) #3, how do the results read?
total luciferase, z-score: -0.2; activity call: inactive

Which result is listed for NDUFS3 (NADH:ubiquinone oxidoreductase core subunit S3) #1?
total luciferase, z-score: -0.052; activity call: inactive

For NDUFS3 (NADH:ubiquinone oxidoreductase core subunit S3) #2, what does the deposit list?
total luciferase, z-score: -0.245; activity call: inactive

With NDUFS3 (NADH:ubiquinone oxidoreductase core subunit S3) #3, how do the results read?
total luciferase, z-score: 1.32; activity call: inactive

What did the screen give for ZNF516 (zinc finger protein 516) #1?
total luciferase, z-score: -1.88; activity call: inactive

How did the screen score ZNF516 (zinc finger protein 516) #2?
total luciferase, z-score: -0.797; activity call: inactive

With ZNF516 (zinc finger protein 516) #3, how do the results read?
total luciferase, z-score: 1.11; activity call: inactive

A few values from the entries so far.
NDUFS3 (NADH:ubiquinone oxidoreductase core subunit S3) #1, total luciferase, z-score = -0.052
Result for WDR93 (WD repeat domain 93) #1 in “activity call”: inactive

Further records follow:
With ZNF461 (zinc finger protein 461) #1, what does the deposit list?
total luciferase, z-score: 1.76; activity call: inactive

What is on record for ZNF461 (zinc finger protein 461) #2?
total luciferase, z-score: 1.06; activity call: inactive

With ZNF461 (zinc finger protein 461) #3, what does the deposit list?
total luciferase, z-score: 1.17; activity call: inactive

For TIMD4 (T cell immunoglobulin and mucin domain containing 4) #1, what was measured?
total luciferase, z-score: 0.242; activity call: inactive

With TIMD4 (T cell immunoglobulin and mucin domain containing 4) #2, what was measured?
total luciferase, z-score: 0.683; activity call: inactive

For TIMD4 (T cell immunoglobulin and mucin domain containing 4) #3, what was measured?
total luciferase, z-score: 0.0351; activity call: inactive

Which result is listed for RFK (riboflavin kinase) #1?
total luciferase, z-score: 0.453; activity call: inactive

With RFK (riboflavin kinase) #2, how do the results read?
total luciferase, z-score: -0.567; activity call: inactive

For RFK (riboflavin kinase) #3, what does the deposit list?
total luciferase, z-score: 0.341; activity call: inactive

With BTNL9 (butyrophilin like 9) #1, what was measured?
total luciferase, z-score: 0.038; activity call: inactive

What is on record for BTNL9 (butyrophilin like 9) #2?
total luciferase, z-score: -0.0391; activity call: inactive

How did the screen score BTNL9 (butyrophilin like 9) #3?
total luciferase, z-score: -0.206; activity call: inactive

Which result is listed for CDK17 (cyclin dependent kinase 17) #1?
total luciferase, z-score: 0.659; activity call: inactive

For CDK17 (cyclin dependent kinase 17) #2, how do the results read?
total luciferase, z-score: 1.81; activity call: inactive

What did the screen give for CDK17 (cyclin dependent kinase 17) #3?
total luciferase, z-score: 0.552; activity call: inactive

With ARSJ (arylsulfatase family member J) #1, what does the deposit list?
total luciferase, z-score: 1.58; activity call: inactive

What is on record for ARSJ (arylsulfatase family member J) #2?
total luciferase, z-score: 0.344; activity call: inactive

With ARSJ (arylsulfatase family member J) #3, what does the deposit list?
total luciferase, z-score: 0.727; activity call: inactive

Which result is listed for YTHDC2 (YTH N6-methyladenosine RNA binding protein C2) #1?
total luciferase, z-score: -0.721; activity call: inactive

With YTHDC2 (YTH N6-methyladenosine RNA binding protein C2) #2, what was measured?
total luciferase, z-score: -0.853; activity call: inactive

How did the screen score YTHDC2 (YTH N6-methyladenosine RNA binding protein C2) #3?
total luciferase, z-score: -0.358; activity call: inactive
